Not every detail of the peptide structures is certain; ends, links or a residue may be inferred. Where a SMILES comes first, the peptide text is derived from it. [ ]: non-standard residue; d: D form. pT = C[C@@H](OP(=O)(O)O)[C@H](N)C(=O)O
Tested on: central nervous system cells
Assay: IVIS imaging of luciferase expression after intrathecal administration
Assay type: in vivo, Balb/c mice
Details: 3e10 gc/mouse, day 11 post dose

In the case of `CC(C)C[C@H](NC(=O)[C@H](C)NC(=O)[C@@H](NC(=O)[C@@H](NC(=O)[C@H](CCCNC(=N)N)NC(=O)[C@H](CCCNC(=N)N)NC(=O)[C@H](C)NC(=O)[C@H](CCCCN)NC(=O)[C@H](CCCNC(=N)N)NC(=O)[C@H](Cc1c[nH]cn1)NC(=O)[C@H](CCCNC(=N)N)NC(=O)[C@H](CCCCN)NC(=O)[C@@H](N)CCCCN)C(C)C)[C@@H](C)OP(=O)(O)O)C(=O)N[C@@H](CCCNC(=N)N)C(=O)N[C@@H](CCC(=O)O)C(=O)NCC(=O)N[C@@H](CCCNC(=N)N)C(=O)N[C@@H](CCCNC(=N)N)C(=O)N[C@@H](Cc1c[nH]cn1)C(=O)N[C@@H](CCCNC(=N)N)C(=O)N[C@@H](CCCCN)C(=O)NCC(=O)N[C@@H](CCC(=O)O)C(=O)N[C@@H](CCCNC(=N)N)C(=O)N[C@@H](CCCNC(=N)N)C(=O)N[C@@H](CCCNC(=N)N)C(=O)N[C@@H](CCCNC(=N)N)C(=O)N[C@@H](CCCNC(=N)N)C(=O)N1CCC[C@H]1C(=O)N1CCC[C@H]1C(=O)N[C@@H](CO)C(=O)N[C@@H](Cc1ccc(O)cc1)C(=O)O` (H-KKRHRKARRV[pT]ALREGRRHRKGERRRRRPPSY-OH), the “Luciferase expression by IVIS imaging” value is reported as “robust expression”.
